From article PMC3422348
These are yes or no findings as the source states them, for the method shown. Binding seen in cells or lysates may run through a third protein. Some entries that bind do so weakly or less than the wild type.

Target: T1, Cdc37 (Cell division cycle protein 37) (human (endogenous in MDA-MB-453 and MDA-MB-231)) (UniProt Q16543)
T1 sequence: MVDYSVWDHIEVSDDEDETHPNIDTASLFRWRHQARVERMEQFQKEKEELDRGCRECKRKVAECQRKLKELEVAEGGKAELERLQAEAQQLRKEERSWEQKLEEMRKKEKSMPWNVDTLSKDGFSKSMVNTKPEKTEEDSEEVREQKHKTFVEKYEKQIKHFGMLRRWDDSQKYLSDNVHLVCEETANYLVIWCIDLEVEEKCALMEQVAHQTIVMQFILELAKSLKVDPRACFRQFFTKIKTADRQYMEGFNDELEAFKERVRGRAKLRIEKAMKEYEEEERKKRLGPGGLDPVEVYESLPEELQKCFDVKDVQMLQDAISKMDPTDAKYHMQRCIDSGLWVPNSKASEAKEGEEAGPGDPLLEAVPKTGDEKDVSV
Assay: co-IP; membrane fractions of MDA-MB-453 and MDA-MB-231 cells immunoprecipitated with anti-Cdc37 (18 h, 4°C, protein G-Sepharose), Western blot with anti-HSP90, anti-HER2, anti-EGFR; cells cultured in control medium or with 200 µg/ml anti-Cdc37 or 200 µg/ml mAb 4C5 for 16 h; densitometry

binding: binds
Substance: EGFR (from UniProt P00533 25-1210) (receptor)
